Results: PubChem BioAssay AID445 (National Center for Advancing Translational Sciences (NCATS), 2006)
Some of the results follow. These are further read-outs of the screen, such as a control signal, another cell line or another target. No call is given for them. Compounds called inactive in the main read-out are mostly missing here. Words in brackets tell the shape of the fitted curve; partial curves, single points and poor fits give uncertain potencies.

Assay: IkB Signaling
Conditions: ABC-DLBCL IkBa-CBG/CBR dual luciferase ratio (green luciferase fused to IkBa over red control in OCI-Ly3 lymphoma cells), 4 h; measured here: control luc red channel unless noted
Summary of the method: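 Luminescence ratio of IκBα-fused green versus native red beetle luciferase in OCI-Ly3 cells, 4 h post-doxycycline with compound; red signal alone, scaled from basal (0%) to zero light (-100%), flagged nonspecific or cytotoxic effects.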

Row | Compound | AC50
1 | O=c1cc(-c2ccc(O)c(O)c2)oc2cc(O)cc(O)c12 | 12.6 µM [falling, partial curve]
2 | CCCCN(CC)C(=O)CSc1c2c(nc3ccc(Cl)cc13)CCCC2 | 12.6 µM [falling, partial curve]
3 | CCn1c(CN2CCC(C)CC2)nc2cc(NC(=O)COc3ccc(Cl)c(C)c3)ccc21 | 2 µM [falling, full curve]
4 | COc1cc(OC)c(NC(=O)CCc2c(C)nc3ncnn3c2C)cc1Cl | 12.6 µM [falling, partial curve]
5 | CCc1ccc(-n2c(SCc3ccccc3Cl)nc3[nH]ncc3c2=O)cc1 | 39.8 µM [falling, single point]
6 | COc1cccc(N2CCN(C(=O)c3cc4cc5cc(C)ccc5nc4s3)CC2)c1 | 39.8 µM [rising, single point]
7 | Cc1cccc(NC(=O)Cn2cc(C(=O)c3ccco3)c3ccccc32)c1 | 20 µM [falling, single point]
8 | COc1ccc(-c2oc3ncn(CCN4CCOCC4)c(=N)c3c2-c2ccc(OC)cc2)cc1 | 20 µM [falling, partial curve]
9 | O=C1CN(Cc2ccccc2)C(=NCc2ccco2)S1 | 2.51 µM [rising, full curve] [measured here: IkB-luc green channel]
10 | COc1ccc(Cn2cc(S(=O)(=O)c3ccc(Cl)cc3)c(=O)c3cc4c(cc32)OCO4)cc1 | 12.6 µM [falling, partial curve]
11 | O=C(NC1(C(F)(F)F)C(=O)Nc2c1c(=O)[nH]c(=O)n2-c1ccc(Cl)cc1)c1ccccc1F (stereo not drawn) | 0.0316 µM [falling, full curve]
12 | Cc1cccc(OCC(=O)Nc2ccc(-c3nc4ccccc4o3)cc2)c1C | 15.8 µM [falling, partial curve]
13 | CCn1c(=N)n(CCOc2ccc(Br)cc2)c2ccccc21 | 39.8 µM [falling, single point]
14 | COc1ccc(CC(=O)NCCc2csc(-c3cccc(C)c3)n2)cc1 | 39.8 µM [falling, single point]
15 | CC(=O)c1cccc(NC(=O)CC(c2ccc(C)cc2)N2Cc3ccccc3C2=O)c1 (stereo not drawn) | 39.8 µM [falling, single point]
16 | COc1cc(S(=O)(=O)n2nnc3ccccc32)c(OC)cc1Cl | 12.6 µM [falling, partial curve]
17 | CCN(C(=O)Nc1cn(CC(C)C)c(=O)c2ccccc12)c1cc(C)ccc1C | 31.6 µM [falling, partial curve]
18 | COc1ccccc1CN1C(=O)CN(C2CCCCCC2)C(=O)C1c1ccc(F)cc1 (stereo not drawn) | 39.8 µM [falling, single point]

In a second layout: 5 of the compounds above
Row,Compound,AC50
8,COc1ccc(-c2oc3ncn(CCN4CCOCC4)c(=N)c3c2-c2ccc(OC)cc2)cc1,"20 µM [falling, partial curve]"
9,O=C1CN(Cc2ccccc2)C(=NCc2ccco2)S1,"2.51 µM [rising, full curve] [measured here: IkB-luc green channel]"
10,COc1ccc(Cn2cc(S(=O)(=O)c3ccc(Cl)cc3)c(=O)c3cc4c(cc32)OCO4)cc1,"12.6 µM [falling, partial curve]"
11,O=C(NC1(C(F)(F)F)C(=O)Nc2c1c(=O)[nH]c(=O)n2-c1ccc(Cl)cc1)c1ccccc1F (stereo not drawn),"0.0316 µM [falling, full curve]"
12,Cc1cccc(OCC(=O)Nc2ccc(-c3nc4ccccc4o3)cc2)c1C,"15.8 µM [falling, partial curve]"
